Test results: article PMC2681411
These are yes or no findings as the source states them, for the method shown. Binding seen in cells or lysates may run through a third protein. Some entries that bind do so weakly or less than the wild type.

Protein sequences, listed by entry. Tags and fused reporters are not part of them.
UniProt Q07817: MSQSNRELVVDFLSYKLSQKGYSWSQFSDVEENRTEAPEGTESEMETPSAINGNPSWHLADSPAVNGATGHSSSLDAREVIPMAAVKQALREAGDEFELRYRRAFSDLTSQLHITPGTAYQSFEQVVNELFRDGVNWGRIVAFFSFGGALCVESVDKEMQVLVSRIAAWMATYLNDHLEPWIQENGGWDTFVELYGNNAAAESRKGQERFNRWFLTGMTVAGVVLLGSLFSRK
UniProt Q8K1M6: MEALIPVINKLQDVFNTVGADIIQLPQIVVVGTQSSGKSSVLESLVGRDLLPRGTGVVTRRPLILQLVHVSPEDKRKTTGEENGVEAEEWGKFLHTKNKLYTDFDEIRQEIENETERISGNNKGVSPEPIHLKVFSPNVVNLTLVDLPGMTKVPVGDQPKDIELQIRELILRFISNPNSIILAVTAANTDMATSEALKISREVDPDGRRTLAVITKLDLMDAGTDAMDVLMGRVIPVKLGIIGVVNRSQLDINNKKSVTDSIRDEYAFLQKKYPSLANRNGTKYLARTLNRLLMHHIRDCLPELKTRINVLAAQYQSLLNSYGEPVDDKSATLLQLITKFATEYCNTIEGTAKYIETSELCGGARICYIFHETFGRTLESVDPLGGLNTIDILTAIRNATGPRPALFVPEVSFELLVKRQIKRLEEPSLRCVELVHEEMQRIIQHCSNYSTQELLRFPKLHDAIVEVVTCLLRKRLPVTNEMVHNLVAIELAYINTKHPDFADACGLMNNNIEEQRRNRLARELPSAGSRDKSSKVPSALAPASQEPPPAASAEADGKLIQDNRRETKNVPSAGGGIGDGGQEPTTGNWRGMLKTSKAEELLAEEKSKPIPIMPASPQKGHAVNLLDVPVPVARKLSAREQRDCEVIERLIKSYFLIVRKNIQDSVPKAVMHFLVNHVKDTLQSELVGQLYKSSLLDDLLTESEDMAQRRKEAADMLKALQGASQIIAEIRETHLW

Molecular target: FLAG-tagged BCL-XL (UniProt Q07817)
Assay: co-IP; Bax-/-/Bak-/- MEFs overexpressing FLAG-Bcl-xL treated with DMSO, 100 uM BID BH3 peptide or 100 uM mutant BID BH3 peptide for 10 minutes; lysis in 50 mM Tris HCl pH 7.4, 150 mM NaCl, 1 mM EDTA, 1% Triton X-100; ANTI-FLAG M2 affinity gel overnight at 4 C; blot for DRP1; twofold more DRP1 with BID BH3 peptide than with mutant BID BH3 peptide

dynamin-related protein 1 (DRP1) (from UniProt Q8K1M6 1-736)
binding: binds
